Measured values published in paper doi:10.1101/2021.03.31.437874.

Chains of the proteins cited; added tags and fusions are not shown.
UniProt P39687: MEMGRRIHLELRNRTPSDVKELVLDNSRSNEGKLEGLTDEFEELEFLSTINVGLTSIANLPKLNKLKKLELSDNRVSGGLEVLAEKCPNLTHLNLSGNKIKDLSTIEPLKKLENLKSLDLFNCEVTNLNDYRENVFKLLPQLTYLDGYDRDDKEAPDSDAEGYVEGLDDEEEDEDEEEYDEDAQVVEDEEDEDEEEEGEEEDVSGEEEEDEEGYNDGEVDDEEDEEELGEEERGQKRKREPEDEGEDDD
UniProt Q5U249: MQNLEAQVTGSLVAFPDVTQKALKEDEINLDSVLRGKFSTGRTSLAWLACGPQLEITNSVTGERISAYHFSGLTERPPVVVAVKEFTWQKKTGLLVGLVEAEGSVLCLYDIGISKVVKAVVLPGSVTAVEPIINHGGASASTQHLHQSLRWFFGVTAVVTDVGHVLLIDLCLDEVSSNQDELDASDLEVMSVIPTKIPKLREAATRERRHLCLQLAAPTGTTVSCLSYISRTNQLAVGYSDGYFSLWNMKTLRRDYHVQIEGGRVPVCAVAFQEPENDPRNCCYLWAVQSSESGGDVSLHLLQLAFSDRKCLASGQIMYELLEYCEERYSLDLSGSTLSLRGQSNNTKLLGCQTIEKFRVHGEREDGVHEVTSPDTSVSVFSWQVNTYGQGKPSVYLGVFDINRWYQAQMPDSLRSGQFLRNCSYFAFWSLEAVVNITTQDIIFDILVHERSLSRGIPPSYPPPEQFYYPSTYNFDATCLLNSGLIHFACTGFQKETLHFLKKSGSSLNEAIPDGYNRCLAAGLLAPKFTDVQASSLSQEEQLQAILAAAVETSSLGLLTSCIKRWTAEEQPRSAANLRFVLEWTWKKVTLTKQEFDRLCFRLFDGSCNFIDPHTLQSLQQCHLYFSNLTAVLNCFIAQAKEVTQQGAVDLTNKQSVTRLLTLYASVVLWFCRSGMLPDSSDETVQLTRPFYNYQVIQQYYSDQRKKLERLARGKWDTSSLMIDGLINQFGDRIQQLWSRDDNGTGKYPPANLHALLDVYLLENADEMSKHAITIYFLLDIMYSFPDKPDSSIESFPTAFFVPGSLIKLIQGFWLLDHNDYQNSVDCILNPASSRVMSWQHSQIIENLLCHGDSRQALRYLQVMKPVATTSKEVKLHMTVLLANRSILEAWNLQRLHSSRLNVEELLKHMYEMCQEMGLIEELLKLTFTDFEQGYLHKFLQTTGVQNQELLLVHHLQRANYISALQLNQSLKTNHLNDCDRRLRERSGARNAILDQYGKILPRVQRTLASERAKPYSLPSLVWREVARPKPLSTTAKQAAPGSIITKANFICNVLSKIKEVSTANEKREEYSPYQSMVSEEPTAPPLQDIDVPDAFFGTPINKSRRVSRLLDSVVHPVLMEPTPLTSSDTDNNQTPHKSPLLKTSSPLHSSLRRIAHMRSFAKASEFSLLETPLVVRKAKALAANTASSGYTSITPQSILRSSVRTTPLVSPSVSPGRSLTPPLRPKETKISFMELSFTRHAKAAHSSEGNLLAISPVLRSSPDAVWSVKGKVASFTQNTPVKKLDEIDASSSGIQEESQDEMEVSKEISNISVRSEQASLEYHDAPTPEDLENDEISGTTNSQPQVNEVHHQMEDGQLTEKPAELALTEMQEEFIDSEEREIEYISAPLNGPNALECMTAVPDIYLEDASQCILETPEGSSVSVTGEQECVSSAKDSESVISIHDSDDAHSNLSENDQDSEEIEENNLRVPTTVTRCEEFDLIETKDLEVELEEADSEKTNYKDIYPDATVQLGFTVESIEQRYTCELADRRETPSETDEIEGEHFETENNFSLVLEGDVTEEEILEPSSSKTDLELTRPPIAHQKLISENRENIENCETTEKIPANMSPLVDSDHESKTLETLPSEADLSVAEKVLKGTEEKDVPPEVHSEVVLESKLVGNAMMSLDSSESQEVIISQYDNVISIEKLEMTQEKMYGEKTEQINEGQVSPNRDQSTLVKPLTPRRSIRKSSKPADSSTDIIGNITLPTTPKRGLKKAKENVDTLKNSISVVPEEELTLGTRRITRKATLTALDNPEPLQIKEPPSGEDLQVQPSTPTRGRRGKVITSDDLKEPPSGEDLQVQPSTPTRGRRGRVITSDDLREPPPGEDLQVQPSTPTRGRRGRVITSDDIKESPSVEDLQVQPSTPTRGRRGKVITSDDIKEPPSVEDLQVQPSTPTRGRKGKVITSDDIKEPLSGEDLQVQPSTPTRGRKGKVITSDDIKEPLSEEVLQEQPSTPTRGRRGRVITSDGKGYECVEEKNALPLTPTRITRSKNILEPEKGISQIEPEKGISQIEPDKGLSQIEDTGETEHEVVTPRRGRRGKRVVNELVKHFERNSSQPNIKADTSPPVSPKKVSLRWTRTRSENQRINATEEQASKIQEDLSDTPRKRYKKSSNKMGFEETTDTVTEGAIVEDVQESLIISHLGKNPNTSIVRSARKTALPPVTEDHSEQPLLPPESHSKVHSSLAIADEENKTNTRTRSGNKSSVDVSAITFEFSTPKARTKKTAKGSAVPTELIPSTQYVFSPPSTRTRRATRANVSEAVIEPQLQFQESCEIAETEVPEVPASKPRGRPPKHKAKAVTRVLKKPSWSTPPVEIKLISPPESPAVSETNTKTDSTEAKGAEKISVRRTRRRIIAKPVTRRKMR
UniProt Q640Z6: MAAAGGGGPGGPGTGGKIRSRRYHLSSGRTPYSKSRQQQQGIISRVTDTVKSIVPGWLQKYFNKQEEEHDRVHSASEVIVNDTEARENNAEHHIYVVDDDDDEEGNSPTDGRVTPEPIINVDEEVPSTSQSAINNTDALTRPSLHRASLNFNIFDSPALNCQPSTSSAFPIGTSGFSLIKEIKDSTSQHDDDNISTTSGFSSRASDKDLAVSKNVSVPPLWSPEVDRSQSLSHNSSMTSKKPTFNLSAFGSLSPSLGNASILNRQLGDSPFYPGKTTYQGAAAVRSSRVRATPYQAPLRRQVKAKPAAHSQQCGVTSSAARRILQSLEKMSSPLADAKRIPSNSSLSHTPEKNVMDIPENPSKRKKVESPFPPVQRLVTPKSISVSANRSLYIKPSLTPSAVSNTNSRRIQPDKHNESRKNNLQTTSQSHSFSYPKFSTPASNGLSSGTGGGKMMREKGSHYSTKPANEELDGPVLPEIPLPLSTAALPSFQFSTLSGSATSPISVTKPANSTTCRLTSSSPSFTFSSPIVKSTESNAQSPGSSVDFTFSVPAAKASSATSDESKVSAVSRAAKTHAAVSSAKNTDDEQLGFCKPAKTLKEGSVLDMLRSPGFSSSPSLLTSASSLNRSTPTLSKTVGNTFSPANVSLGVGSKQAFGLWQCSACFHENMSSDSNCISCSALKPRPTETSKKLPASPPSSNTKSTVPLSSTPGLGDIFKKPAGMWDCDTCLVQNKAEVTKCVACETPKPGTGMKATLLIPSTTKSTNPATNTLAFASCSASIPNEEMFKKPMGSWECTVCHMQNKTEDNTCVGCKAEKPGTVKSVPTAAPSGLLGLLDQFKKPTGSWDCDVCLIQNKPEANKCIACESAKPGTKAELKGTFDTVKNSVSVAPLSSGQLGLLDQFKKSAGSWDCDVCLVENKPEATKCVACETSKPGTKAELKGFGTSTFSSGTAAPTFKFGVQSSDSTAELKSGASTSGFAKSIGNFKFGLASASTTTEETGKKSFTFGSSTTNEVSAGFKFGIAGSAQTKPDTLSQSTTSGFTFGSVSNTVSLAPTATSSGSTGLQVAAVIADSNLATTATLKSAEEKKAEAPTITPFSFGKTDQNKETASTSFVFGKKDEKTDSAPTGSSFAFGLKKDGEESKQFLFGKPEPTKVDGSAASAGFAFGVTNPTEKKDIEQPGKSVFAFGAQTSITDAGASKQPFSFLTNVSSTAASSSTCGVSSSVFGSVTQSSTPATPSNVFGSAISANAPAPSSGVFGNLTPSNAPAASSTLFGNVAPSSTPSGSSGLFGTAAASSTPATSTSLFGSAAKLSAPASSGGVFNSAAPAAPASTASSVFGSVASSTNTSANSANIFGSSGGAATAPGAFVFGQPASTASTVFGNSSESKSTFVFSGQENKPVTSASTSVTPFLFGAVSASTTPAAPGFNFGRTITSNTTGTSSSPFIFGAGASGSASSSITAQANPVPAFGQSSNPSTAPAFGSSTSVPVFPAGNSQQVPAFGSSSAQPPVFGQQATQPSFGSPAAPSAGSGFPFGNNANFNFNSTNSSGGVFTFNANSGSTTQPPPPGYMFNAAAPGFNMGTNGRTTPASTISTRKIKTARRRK
UniProt P52297: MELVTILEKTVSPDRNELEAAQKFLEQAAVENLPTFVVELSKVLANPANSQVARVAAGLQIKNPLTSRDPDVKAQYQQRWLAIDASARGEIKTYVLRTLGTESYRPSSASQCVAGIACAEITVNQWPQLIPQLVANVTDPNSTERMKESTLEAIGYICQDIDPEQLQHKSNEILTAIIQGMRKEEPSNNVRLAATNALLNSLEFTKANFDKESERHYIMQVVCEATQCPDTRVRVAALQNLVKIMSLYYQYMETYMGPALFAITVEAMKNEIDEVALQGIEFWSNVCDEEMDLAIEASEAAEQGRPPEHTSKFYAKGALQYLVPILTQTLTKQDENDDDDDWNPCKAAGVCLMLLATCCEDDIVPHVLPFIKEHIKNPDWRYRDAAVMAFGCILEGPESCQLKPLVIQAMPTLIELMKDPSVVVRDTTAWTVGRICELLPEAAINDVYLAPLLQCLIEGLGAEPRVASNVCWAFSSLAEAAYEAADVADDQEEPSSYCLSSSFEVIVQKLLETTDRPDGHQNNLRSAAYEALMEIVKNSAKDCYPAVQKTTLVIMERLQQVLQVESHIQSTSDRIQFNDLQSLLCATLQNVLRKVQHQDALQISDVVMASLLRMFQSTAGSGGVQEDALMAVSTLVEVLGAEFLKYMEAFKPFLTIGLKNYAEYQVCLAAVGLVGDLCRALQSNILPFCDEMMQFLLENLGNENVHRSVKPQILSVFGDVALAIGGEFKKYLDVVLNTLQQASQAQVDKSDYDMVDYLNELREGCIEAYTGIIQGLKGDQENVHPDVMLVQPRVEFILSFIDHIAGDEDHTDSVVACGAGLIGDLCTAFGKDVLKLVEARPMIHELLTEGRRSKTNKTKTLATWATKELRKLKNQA

Tests used:
[1] = target: mouse Nup50B N-terminally tagged with EGFP (mouse) (UniProt F6TPP9); assay: co-IP
[2] = target: GST-fusion of mouse Nup50B (mouse) (UniProt F6TPP9); assay: pull-down
[3] = target: GST-fusion of full-length Xenopus Nup50 (Xenopus laevis) (UniProt Q6DEC7); assay: pull-down

binding [1] | binding [2] | binding [3] | Substance
binds |  |  | ANP32A, endogenous in HEK293T (from UniProt P39687 1-249)
 | binds weakly | binds | MEL28/ELYS (endogenous, Xenopus egg extracts) (from UniProt Q5U249 1-2408)
 | binds weakly | binds | Nup153 (endogenous, Xenopus egg extracts) (from UniProt Q640Z6 1-1605)
 |  | binds | importin β (endogenous, Xenopus egg extracts) (from UniProt P52297 1-876)

These are yes or no findings as the source states them, for the method shown. In cells and extracts the contact can be indirect. Binding calls can cover weak binding; strength is not graded here.
